In publication PMC8211105:
No constants are given. Whether binding was seen depends on the method and setting. Binding can be weak; no strength is given. Sequences can lack the tags named with a protein.

Experiments:
[1] = target: T1, MxiK, BACTH fusion (S. flexneri) (UniProt P0A227); assay: two-hybrid; bacterial adenylate cyclase two-hybrid (BACTH) in cyaA- E. coli BTH101; T18 and T25 fused to N- or C-terminus, eight permutations; read on LB X-gal and MacConkey maltose plates, 30°C; positive if at least one permutation is positive
T1 sequence: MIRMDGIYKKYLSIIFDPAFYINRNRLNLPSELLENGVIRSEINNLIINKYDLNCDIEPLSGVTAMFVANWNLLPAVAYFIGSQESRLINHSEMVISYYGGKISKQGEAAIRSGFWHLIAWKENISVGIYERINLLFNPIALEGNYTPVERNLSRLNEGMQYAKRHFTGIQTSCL

[2] = target: T2, MxiN, BACTH fusion (S. flexneri) (UniProt Q6XVX6); assay: as above
T2 sequence: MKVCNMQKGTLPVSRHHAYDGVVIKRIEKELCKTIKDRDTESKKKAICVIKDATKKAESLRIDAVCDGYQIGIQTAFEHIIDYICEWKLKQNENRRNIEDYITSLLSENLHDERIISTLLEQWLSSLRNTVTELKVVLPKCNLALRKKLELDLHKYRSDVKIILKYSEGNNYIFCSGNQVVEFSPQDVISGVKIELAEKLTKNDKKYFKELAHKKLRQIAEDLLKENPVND

Substance	binding [1]	binding [2]
Spa33^C (C-terminal domain of Spa33), BACTH fusion (S. flexneri) (domain or fragment)	no binding	no binding
Spa33^FL (full-length Spa33 lacking the internal translation start site), BACTH fusion (from UniProt P0A1K9)	binds	binds
